According to article PMC12701074:
Where two headings read alike, the source gives them in different places. These are yes or no findings as the source states them, for the method shown. In cells and extracts the contact can be indirect. Some binding calls cover weakened binding; strength is not graded here.

Sequences of proteins named here, by UniProt entry; tags and fusion partners are left off.
UniProt P07355: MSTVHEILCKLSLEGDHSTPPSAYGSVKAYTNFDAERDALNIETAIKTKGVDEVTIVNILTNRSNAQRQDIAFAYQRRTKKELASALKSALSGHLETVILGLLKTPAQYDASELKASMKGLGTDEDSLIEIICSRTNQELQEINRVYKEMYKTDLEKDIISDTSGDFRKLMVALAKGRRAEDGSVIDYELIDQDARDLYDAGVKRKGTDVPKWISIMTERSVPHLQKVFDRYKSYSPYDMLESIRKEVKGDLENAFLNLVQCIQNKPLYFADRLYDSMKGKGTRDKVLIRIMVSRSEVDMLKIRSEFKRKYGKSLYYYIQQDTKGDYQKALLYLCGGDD
UniProt P29692: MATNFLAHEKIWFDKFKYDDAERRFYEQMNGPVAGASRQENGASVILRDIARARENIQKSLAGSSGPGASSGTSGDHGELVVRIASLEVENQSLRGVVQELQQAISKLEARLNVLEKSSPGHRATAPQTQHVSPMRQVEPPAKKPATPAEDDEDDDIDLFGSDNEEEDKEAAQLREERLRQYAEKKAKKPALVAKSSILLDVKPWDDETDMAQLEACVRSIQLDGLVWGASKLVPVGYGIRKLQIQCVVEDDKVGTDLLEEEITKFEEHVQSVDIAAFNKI
UniProt P41091: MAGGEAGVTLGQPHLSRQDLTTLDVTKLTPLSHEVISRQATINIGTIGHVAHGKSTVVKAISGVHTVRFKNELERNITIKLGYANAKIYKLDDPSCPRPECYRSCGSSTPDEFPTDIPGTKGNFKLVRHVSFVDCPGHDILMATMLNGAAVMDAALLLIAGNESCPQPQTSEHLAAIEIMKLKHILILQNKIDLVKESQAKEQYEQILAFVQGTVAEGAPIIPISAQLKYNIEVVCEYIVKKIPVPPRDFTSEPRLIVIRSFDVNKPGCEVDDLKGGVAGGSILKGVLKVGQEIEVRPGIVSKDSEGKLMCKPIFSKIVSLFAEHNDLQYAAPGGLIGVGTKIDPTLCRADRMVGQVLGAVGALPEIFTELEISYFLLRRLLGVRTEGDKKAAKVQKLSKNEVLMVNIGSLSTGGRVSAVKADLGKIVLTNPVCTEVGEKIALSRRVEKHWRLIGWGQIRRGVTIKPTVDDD
UniProt P26641: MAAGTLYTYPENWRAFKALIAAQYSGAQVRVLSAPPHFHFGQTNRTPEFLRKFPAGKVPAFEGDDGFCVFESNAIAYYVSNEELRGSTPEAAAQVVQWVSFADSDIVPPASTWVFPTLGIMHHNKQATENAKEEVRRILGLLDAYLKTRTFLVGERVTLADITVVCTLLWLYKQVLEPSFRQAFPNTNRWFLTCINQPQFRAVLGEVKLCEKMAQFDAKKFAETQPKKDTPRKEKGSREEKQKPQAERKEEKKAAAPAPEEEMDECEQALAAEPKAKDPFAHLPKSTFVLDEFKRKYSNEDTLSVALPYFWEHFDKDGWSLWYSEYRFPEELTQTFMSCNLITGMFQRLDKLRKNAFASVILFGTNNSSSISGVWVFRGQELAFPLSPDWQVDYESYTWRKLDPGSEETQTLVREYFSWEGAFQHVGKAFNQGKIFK
UniProt P60903: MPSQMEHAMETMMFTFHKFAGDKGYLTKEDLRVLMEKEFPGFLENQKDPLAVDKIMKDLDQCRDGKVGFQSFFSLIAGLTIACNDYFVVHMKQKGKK
UniProt O75794: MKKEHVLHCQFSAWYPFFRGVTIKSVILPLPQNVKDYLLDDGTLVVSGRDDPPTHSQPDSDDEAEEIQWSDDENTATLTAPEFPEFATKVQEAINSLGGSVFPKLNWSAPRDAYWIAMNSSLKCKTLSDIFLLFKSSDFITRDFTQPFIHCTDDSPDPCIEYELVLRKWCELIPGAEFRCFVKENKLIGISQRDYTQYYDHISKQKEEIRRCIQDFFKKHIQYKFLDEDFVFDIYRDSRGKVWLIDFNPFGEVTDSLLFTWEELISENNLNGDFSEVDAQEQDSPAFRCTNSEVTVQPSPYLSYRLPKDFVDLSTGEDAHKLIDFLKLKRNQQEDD
UniProt P68104: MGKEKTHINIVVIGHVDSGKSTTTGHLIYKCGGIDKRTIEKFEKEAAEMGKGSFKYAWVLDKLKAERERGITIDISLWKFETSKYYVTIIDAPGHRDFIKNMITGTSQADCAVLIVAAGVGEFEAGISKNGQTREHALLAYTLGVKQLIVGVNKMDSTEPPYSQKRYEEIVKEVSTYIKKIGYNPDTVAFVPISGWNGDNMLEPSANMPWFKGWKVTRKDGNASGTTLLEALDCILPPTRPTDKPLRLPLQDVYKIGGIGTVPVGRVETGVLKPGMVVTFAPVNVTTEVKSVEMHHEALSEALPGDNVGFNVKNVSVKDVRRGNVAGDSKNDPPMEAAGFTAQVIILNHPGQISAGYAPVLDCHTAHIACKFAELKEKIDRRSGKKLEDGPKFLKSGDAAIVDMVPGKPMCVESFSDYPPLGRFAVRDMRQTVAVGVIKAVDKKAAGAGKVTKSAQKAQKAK

Key:
Test in all cases: cross-linking; in vivo cross-linking of intact HEK 293 cells in PBS with 2 mM SIA, 1 mM SIAB or 2 mM SBAP (lysine-cysteine linkers), 30 min, 37 °C (room temperature for SIAB); cross-linked peptides oxidised and identified by LC-MSn and stepped-HCD MS2
[1] = target: ANXA2 (human (endogenous in HEK 293)) (UniProt P07355)
[2] = target: T1, eEF1B2 (human) (UniProt P24534)
T1 sequence: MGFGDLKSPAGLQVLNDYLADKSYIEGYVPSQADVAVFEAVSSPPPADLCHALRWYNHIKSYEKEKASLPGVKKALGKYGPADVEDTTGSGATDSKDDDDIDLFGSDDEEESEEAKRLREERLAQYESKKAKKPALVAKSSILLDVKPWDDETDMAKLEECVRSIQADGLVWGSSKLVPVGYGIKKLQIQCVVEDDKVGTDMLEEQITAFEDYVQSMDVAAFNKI

[3] = target: eEF1D (human) (UniProt P29692)
[4] = target: EIF2S3 (human (endogenous in HEK 293)) (UniProt P41091)
[5] = target: eEF1G (human) (UniProt P26641)
[6] = target: eEF1D (human) (UniProt P29692); remark: listed apart in the source

## S100A10 (from UniProt P60903 1-97)
[1]
  binding: binds

## eEF1G (from UniProt P26641 1-437)
[2]
  binding: binds
[3]
  binding: binds

## CDC123 (from UniProt O75794 1-336)
[4]
  binding: binds

## eEF1A1 (from UniProt P68104 1-462)
[2]
  binding: binds
[5]
  binding: binds

B1: eEF1B2 (protein, UniProt P24534 1-225)
chain: T1 sequence
[6]
  binding: binds
